Results deposited as PubChem BioAssay AID1159578 (Peter MacCallum Cancer Centre, 2015)

- Assay: 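Genome-wide hunt for genes controlling movement of lymphatic endothelial cells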 (primary screen)
- Cells: human lymphatic endothelial cells
- Reagent: siRNA pool against human genes, 40 nM
- Time to read-out: 48 h after transfection
- Measured: 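High-content imaging of dye-stained cells in a scratch assay measures filled wound area and nuclei per well; duplicate means given as ratio to mock and robust z-score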
- Scale: migration robust z-score: higher = faster migration into the scratch; migration relative to mock: higher = more scratch area covered than mock; nuclei per well: higher = more cells in the well
- Active means: 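Pools averaging fewer than 3300 nuclei are never called; remaining pools count as changed when migration robust z lies outside -2 to 2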
- Meaning of the calls: active = migration changed; inactive = no migration change, or too few cells
Shown is an unselected part of about 18,000 deposited reagents. Over the whole deposit, about 1,030 (5.7%) are marked active. 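Inactive calls also include pools with fewer than 3300 nuclei, whose migration was not assessed.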 Raw values vary from plate to plate and are shown uncorrected. Unmarked entries are inactive. No sequences are given here.

| gene knocked down | migration robust z-score | migration class with cell-count check | migration relative to mock | nuclei per well, duplicate mean |
| --- | --- | --- | --- | --- |
| ERGIC1 | 0.69 | migration z between -2 and 2; enough cells | 1.07 | 4964 |
| TSPYL5 | 0.34 | migration z between -2 and 2; enough cells | 0.98 | 6215 |
| MMP11 | -0.57 | migration z between -2 and 2; enough cells | 0.69 | 5484 |
| CCNT2 | 0.3 | migration z between -2 and 2; enough cells | 0.97 | 6970 |
| MMACHC | -1.92 | migration z between -2 and 2; enough cells | 0.38 | 4989 |
| INPP5A | -0.78 | migration z between -2 and 2; enough cells | 0.66 | 5370 |
| DLGAP5 | -0.08 | migration z between -2 and 2; enough cells | 0.79 | 5352 |
| TMEM270 | -1.51 | migration z between -2 and 2; enough cells | 0.49 | 4889 |
| TRAF3IP2 | -0.4 | migration z between -2 and 2; enough cells | 0.78 | 4526 |
| ZNF577 | -1.01 | migration z between -2 and 2; enough cells | 0.62 | 5426 |
| SSX4B | 0.08 | migration z between -2 and 2; enough cells | 0.91 | 5402 |
| IQCH | 0.4 | migration z between -2 and 2; enough cells | 0.99 | 5848 |
| HES1 | 1.66 | migration z between -2 and 2; enough cells | 1.12 | 4502 |
| IL17RE | -0.54 | migration z between -2 and 2; enough cells | 0.75 | 5985 |
| AP3B1 | -1.45 | migration z between -2 and 2; enough cells | 0.52 | 4750 |
| ARFIP1 | -2.23 (active) | migration z below -2; enough cells | 0.38 | 4043 |
| PHOSPHO1 | -0.66 | migration z between -2 and 2; enough cells | 0.71 | 6081 |
| COX7C | -0.21 | migration z between -2 and 2; enough cells | 0.76 | 3982 |
| ZP2 | -0.84 | migration z between -2 and 2; enough cells | 0.66 | 5984 |
| ASPDH | -0.12 | migration z between -2 and 2; enough cells | 0.85 | 5380 |
| LAMP1 | -0.74 | migration z between -2 and 2; enough cells | 0.69 | 5431 |
| WNT3 | 0.62 | migration z between -2 and 2; enough cells | 1.04 | 5831 |
| NRXN2 | 1.61 | migration z between -2 and 2; enough cells | 1.3 | 6052 |
| CDC42SE1 | -0.94 | migration z between -2 and 2; enough cells | 0.64 | 6656 |
| SLC5A4 | 0.31 | migration z between -2 and 2; enough cells | 0.86 | 5777 |
| PSME3 | 0.27 | migration z between -2 and 2; enough cells | 0.96 | 5941 |
| MYMK | -0.67 | migration z between -2 and 2; enough cells | 0.71 | 6760 |
| SLC35F1 | 1.09 | migration z between -2 and 2; enough cells | 1.17 | 6736 |
| HSBP1 | 0.11 | migration z between -2 and 2; enough cells | 0.82 | 6220 |
| DMAP1 | 0.86 | migration z between -2 and 2; enough cells | 1.11 | 4508 |
| CELF6 | -1.04 | migration z between -2 and 2; enough cells | 0.62 | 5730 |
| ROR2 | -0.16 | migration z between -2 and 2; enough cells | 0.78 | 6626 |

An excerpt from above, reduced to “migration robust z-score”.
ZNF577: -1.01
SSX4B: 0.08
IQCH: 0.4
HES1: 1.66
IL17RE: -0.54

The list goes on.
| gene knocked down | migration robust z-score | migration class with cell-count check | migration relative to mock | nuclei per well, duplicate mean |
| --- | --- | --- | --- | --- |
| FBXO45 | 0.57 | migration z between -2 and 2; enough cells | 0.92 | 7090 |
| SEPTIN7 | 0.29 | migration z between -2 and 2; enough cells | 0.96 | 7576 |
| ABCE1 | 0.03 | migration z between -2 and 2; enough cells | 0.81 | 5877 |
| CTSD | 0 | migration z between -2 and 2; enough cells | 0.8 | 5202 |
| ECRG4 | -0.16 | migration z between -2 and 2; enough cells | 0.84 | 5944 |
| RALA | 0.18 | migration z between -2 and 2; enough cells | 0.84 | 5614 |
| EGLN2 | 0.54 | migration z between -2 and 2; enough cells | 0.91 | 4420 |
| SIRAL2 | -0.34 | migration z between -2 and 2; enough cells | 0.8 | 6118 |
| RPS6KA5 | -1.84 | under 3300 nuclei; migration not judged | 0.45 | 2912 |
| MT3 | 0.86 | migration z between -2 and 2; enough cells | 0.97 | 4587 |
| PRAMEF12 | 1.15 | migration z between -2 and 2; enough cells | 1.19 | 5529 |
| TAC4 | 1.04 | migration z between -2 and 2; enough cells | 1.15 | 6522 |
| SMIM3 | -0.03 | migration z between -2 and 2; enough cells | 0.8 | 5100 |
| ATP1B4 | 0.15 | migration z between -2 and 2; enough cells | 0.92 | 6684 |
| GPR6 | 0.7 | migration z between -2 and 2; enough cells | 0.94 | 5956 |
| KRTAP8-1 | -0.21 | migration z between -2 and 2; enough cells | 0.83 | 5097 |
| LRIT2 | -1.03 | migration z between -2 and 2; enough cells | 0.62 | 3659 |
| KRTCAP3 | 2.35 (active) | migration z above 2; enough cells | 1.5 | 6748 |
| NR3C1 | -1.55 | migration z between -2 and 2; enough cells | 0.5 | 5786 |
| KCNJ15 | -0.52 | migration z between -2 and 2; enough cells | 0.7 | 4980 |
| SAMD15 | 0.74 | migration z between -2 and 2; enough cells | 1.08 | 5464 |
| METTL1 | -0.8 | migration z between -2 and 2; enough cells | 0.65 | 3804 |
| KRT16 | 1.08 | migration z between -2 and 2; enough cells | 1.16 | 6337 |
| FRYL | -0.89 | migration z between -2 and 2; enough cells | 0.66 | 6240 |
| FNTA | 0.78 | migration z between -2 and 2; enough cells | 0.96 | 4982 |
